Experimental data: article PMC3880038
No constants are given. Whether binding was seen depends on the method and setting. In cells and extracts the contact can be indirect.

The chains behind the UniProt entries cited, without tags or fusion partners.
UniProt P26038: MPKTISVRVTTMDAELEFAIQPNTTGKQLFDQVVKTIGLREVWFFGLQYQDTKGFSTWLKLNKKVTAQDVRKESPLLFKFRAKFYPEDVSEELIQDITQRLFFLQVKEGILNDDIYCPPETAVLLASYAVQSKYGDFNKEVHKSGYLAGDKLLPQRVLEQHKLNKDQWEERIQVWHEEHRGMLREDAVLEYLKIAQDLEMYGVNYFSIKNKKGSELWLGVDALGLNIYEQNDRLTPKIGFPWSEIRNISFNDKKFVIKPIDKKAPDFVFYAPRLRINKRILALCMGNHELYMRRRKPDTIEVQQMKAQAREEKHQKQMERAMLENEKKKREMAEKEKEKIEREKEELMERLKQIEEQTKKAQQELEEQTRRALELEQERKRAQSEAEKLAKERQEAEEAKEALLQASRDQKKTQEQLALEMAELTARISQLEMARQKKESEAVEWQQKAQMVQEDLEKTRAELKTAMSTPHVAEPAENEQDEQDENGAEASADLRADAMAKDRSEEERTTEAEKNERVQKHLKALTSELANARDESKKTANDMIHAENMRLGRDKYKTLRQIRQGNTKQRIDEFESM
UniProt P35241: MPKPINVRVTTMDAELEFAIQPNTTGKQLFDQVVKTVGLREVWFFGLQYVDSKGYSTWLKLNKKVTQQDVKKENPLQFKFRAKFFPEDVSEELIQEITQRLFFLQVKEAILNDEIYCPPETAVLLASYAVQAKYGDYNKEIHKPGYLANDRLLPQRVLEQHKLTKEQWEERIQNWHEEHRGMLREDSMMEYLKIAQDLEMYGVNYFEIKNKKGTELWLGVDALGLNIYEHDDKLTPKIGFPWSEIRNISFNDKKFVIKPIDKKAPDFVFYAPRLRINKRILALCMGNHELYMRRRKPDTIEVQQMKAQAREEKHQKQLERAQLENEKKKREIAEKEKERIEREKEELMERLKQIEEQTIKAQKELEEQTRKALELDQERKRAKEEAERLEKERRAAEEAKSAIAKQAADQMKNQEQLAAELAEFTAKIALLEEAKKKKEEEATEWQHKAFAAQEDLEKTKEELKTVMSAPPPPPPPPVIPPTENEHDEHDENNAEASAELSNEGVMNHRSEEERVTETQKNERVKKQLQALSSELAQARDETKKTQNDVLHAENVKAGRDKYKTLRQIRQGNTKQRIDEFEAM
UniProt P15311: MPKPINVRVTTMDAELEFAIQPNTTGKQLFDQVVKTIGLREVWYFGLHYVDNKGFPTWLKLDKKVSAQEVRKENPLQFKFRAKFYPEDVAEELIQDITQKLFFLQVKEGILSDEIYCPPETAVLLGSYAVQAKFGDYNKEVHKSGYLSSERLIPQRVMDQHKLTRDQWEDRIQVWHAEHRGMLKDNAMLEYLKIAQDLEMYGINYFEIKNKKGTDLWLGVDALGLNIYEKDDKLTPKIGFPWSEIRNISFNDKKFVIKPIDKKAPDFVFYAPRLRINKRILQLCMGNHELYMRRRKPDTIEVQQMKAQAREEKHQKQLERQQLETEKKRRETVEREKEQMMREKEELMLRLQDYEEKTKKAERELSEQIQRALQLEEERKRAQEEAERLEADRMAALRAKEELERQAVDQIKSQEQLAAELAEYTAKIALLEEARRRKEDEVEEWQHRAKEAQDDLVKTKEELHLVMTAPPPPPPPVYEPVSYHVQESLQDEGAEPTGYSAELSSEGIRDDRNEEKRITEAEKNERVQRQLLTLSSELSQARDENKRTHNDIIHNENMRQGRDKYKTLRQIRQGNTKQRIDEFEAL

Columns and labels:
Assay in all cases: co-IP; anti-c-myc immunoprecipitation from lysates of BPAEC transfected with pCMV-myc ezrin, radixin or moesin (IP buffer with 150 mM NaCl, 1% Nonidet P-40; protein G Sepharose, 4°C), Western blot for c-myc, EBP50 and NHERF2
[1] = target: c-myc-tagged moesin (pCMV-myc moesin) (UniProt P26038)
[2] = target: c-myc-tagged radixin (pCMV-myc radixin) (UniProt P35241)
[3] = target: c-myc-tagged ezrin (pCMV-myc ezrin) (UniProt P15311)

binding [1]: no binding
binding [2]: no binding
binding [3]: no binding
B1: EBP50 (NHERF1), endogenous in BPAEC (protein, UniProt Q3SZK8 1-368)
chain: MSADAGAGAPLPRLCCLEKGPNGYGFHLHGEKGKVGQYIRLVEPGSPAEKSGLLAGDRLVEVNGENVEKETHQQVVNRIRAALNSVRLLVVDPETDERLQKLGVQVREEMLRAQEGPGQAEPPAAAAEERGAGGENEPPAAAPEPREAEQSPQERRELRPRLCAMKKGPNGYGFNLHSDKSKPGQFIRAVDPDSPAEASGLRAQDRIVEVNGVCVEGKPHGEVVSAIKAGGDEAKLLVVDRETDEFFKKCKVIPSQEHLQGPLPEPITNGEIEKENSPEALAETASESPMPPLARTASSDTSEELNSQDSPKKQDSTAPSSTSSSSSDPVLDFSISLAVAKERAHQKRVSKRAPQMDWSKKNELFSNL
